Measured values from US20230174507A1, “IMIDAZOLE 3-OXIDE DERIVATIVE BASED ACSS2 INHIBITORS AND METHODS OF USE THEREOF” (METABOMED LTD., priority 2020, published 2023).
The match of structure and compound is tentative.

Sequences of proteins named here, by UniProt entry; tags and fusion partners are left off. Residues count along the entry.
UniProt Q9NR19, whole entry: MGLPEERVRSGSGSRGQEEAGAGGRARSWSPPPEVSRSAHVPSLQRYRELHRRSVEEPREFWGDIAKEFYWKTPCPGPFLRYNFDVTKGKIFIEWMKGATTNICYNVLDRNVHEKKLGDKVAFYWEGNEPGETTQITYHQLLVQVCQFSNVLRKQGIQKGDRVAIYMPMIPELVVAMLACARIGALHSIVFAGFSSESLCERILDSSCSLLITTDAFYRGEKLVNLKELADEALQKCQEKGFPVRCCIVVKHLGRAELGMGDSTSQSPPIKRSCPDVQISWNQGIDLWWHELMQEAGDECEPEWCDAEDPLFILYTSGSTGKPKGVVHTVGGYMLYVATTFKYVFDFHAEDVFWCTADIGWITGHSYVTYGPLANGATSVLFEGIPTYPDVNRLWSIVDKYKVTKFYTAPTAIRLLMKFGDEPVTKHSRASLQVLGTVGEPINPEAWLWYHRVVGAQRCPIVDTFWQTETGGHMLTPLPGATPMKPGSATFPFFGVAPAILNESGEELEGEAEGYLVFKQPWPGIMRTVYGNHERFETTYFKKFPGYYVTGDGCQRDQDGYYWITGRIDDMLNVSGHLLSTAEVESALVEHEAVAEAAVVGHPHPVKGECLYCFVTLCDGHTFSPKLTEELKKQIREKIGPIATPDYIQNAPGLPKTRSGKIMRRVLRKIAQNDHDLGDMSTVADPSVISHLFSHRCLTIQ
UniProt Q9NUB1, 38-689 limits assumed: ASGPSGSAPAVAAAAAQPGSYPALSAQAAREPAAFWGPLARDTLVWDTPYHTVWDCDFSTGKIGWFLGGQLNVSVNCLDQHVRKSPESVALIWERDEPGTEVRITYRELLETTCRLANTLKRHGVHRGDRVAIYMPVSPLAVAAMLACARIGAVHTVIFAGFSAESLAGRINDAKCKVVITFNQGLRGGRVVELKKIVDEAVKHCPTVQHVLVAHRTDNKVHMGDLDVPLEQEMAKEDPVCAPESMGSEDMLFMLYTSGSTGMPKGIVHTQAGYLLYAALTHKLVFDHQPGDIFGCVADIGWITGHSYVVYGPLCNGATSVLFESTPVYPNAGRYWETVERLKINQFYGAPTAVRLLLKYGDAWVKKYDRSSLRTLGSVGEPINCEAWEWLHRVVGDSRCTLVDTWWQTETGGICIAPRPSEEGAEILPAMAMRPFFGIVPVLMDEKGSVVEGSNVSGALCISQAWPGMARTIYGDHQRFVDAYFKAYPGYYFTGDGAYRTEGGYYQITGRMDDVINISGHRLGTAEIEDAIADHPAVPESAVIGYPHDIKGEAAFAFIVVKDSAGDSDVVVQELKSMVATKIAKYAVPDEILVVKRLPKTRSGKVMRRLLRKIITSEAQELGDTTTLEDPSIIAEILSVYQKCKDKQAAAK

Assays:
human ACSS2 protein = human ACSS2 protein (Homo sapiens, UniProt Q9NR19); assay: ACSS2 cell-free activity assay (pyrophosphatase-coupled, Biomol green); conditions: read-out: ACSS2 Biochemical IC50; 10 nM human ACSS2, 90 minutes at 37 C, absorbance at 620 nm
Experimental: ACSS2 Cell-Free Activity Assay (Cell-Free IC50)
(§1) The assay is based on a coupling reaction with Pyrophosphatase: ACSS2 is converting ATP+CoA+Acetate=>AMP+pyrophosphate+Acetyl-CoA (Ac-CoA). Pyrophosphatase converts pyrophosphate, a product of the ACSS2 reaction, to phosphate which can be detected by measuring the absorbance at 620 nm after incubation with the Biomol green reagent (Enzo life Science, BML-AK111).
(§2) Cell Free IC50 Determination:
(§3) 10 nM of human ACSS2 protein (OriGene Technologies, Inc) was incubated for 90 minutes at 37 C with various compounds' concentrations in a reaction containing 50 mM Hepes pH 7.5, 10 mM DTT, 90 mM KCl, 0.006% Tween-20, 0.1 mg/ml BSA, 2 mM MgCl2, 10 μM CoA, 5 mM NaAc, 300 μM ATP and 0.5 U/ml Pyrophosphatase (Sigma). At the end of the reaction, Biomol Green was added for 30 minutes at RT and the activity was measured by reading the absorbance at 620 nm. IC50 values were calculated using non-linear regression curve fit with 0% and 100% constrains (CDD Vault, Collaborative Drug Discovery, Inc.).

human ACSS1 protein = human ACSS1 protein (Homo sapiens, UniProt Q9NUB1); assay: ACSS1 cell-free activity assay (pyrophosphatase-coupled, Biomol green); conditions: 5 nM human ACSS1, 30 minutes at room temperature, absorbance at 620 nm
Experimental: ACSS1 Cell-Free Activity Assay (Cell-Free IC50)
as §1, with “ACSS1” for “ACSS2”
as §2
as §3, with “5 nM” for “10 nM”, “human ACSS1” for “human ACSS2”, “protein (MyBioSource)” for “protein (OriGene Technologies, Inc)”, “for 30” for “for 90”, “at room temperature” for “at 37 C”, “MgCl2, 15” for “MgCl2, 10”

SMILES | IC50 (human ACSS2 protein) [nM] | ACSS1 Biochemical IC50 (nM) (human ACSS1 protein)
CCCc1cc(C)c(-c2cc(-c3[nH]c(C)c(C(=O)Nc4cccc(C(F)(F)CC)c4)[n+]3[O-])ccc2OC)c(C)c1 | > 30 | Inactive
CCC(F)(F)c1cccc(NC(=O)c2c(C)[nH]c(-c3ccc(OC)c(C4C(C)CCCC4C)c3)[n+]2[O-])c1 (stereo not shown) | 1 to 30 | Inactive
